Here are results for 1 molecule from the supplement of paper PMC6411743.

In the experiment the target is T1, DOHH (UniProt Q9BU89).
T1 sequence (whole entry): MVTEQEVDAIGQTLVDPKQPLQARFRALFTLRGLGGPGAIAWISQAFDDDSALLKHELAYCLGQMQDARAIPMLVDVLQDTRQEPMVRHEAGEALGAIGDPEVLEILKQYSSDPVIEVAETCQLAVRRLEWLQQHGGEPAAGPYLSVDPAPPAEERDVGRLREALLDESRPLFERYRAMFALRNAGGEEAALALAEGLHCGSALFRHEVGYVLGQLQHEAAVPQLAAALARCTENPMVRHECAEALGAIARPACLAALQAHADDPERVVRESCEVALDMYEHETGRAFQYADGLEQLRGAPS
Put plainly: NP40-soluble protein abundance relative to vehicle (solubility fold change) (ratio); higher = more soluble protein in presence of GTP. The method, then: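 Solubility proteome profiling in Jurkat crude lysate. Lysate was treated with Mg-GTP (0.1-10 mM) for 10 min at room temperature and 3 min at 37 °C, then solubilised with 0.8% NP40 and benzonase, followed by ultracentrifugation. Proteins were quantified by TMT10 LC-MS/MS; the value is the NP40-soluble abundance relative to the NP40-processed vehicle, from 3 independent experiments.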

Structures are written as SMILES. ± gives the standard deviation of the averaged measurements. Some of the results follow.

For the molecule `Nc1nc2c(ncn2[C@@H]2O[C@H](COP(=O)(O)OP(=O)(O)OP(=O)(O)O)[C@@H](O)[C@H]2O)c(=O)[nH]1` [guanosine triphosphate], the NP40-soluble protein abundance (concentration: 0.1mM) is 0.975 ± 0.066; the NP40-soluble protein abundance (concentration: 0.5mM) turned out to be 0.905 ± 0.03; the NP40-soluble protein abundance (concentration: 1mM) was 1.03 ± 0.062; the NP40-soluble protein abundance (concentration: 2mM) is 1.01 ± 0.033; the NP40-soluble protein abundance (concentration: 4mM) amounted to 1.01 ± 0.023; the NP40-soluble protein abundance (concentration: 6mM) was 1.01 ± 0.014. Besides, the NP40-soluble protein abundance runs as follows: (concentration: 8mM) 0.959 ± 0.063; (concentration: 10mM) 0.973 ± 0.066.
